This continues a long series; more values of the same kind are listed elsewhere.
Tested on: intraocular pressure (IOP)
Assay: Intraocular pressure in New Zealand White rabbits, topical dosing four times daily
Assay type: in vivo
Conditions: P.M. readings
Experimental: On Days 1-31, animals received daily topical doses of the appropriate test article into the right eye. Animals were dosed four times per day, with doses administered 2 hours apart. Doses were administered using a calibrated 50-μL pipette. The eyelids were held close for 10 seconds immediately following dosing. The time of each dose administration was recorded.
Intraocular pressure (“IOP”) was determined for both eyes of each animal on Days 3, 5, 10, 12, 16, 18, 22, 24, 26, 30, and 32. IOP was evaluated with a Medtronic Solan, Model 30 classic pneumatonometer. Proparacaine hydrochloride 0.5% (1 drop) was delivered to each eye prior to IOP measurement. IOP was measured on Monday. Wednesday, and Friday of each week. A two-point diurnal curve was established: IOP was recorded at 8 a.m. and 12 p.m. on Day 3, and at 8 a.m. and 2 p.m. on later days, with a ±1 hour range for each of these times. The time of the measurements was recorded.
Descriptive statistics were prepared for IOP data of each treatment group (left and right eyes separately) at each measurement interval. The statistics included the number of observations (“N”) mean, standard deviation (“STD”), and standard error (“SEM”). Statistical analyses were conducted on IOP results using Statistical Analysis Systems (SAS Institute. Inc., Cary, N.C. V8.0). Parameters were evaluated using analysis of variance/GLM Procedure followed by Tukey's Standardized Range Test (Tukey, 1985) for post hoc comparisons of group means. The level of significance was set at a probability of p<0.05 for all statistical procedures. Group IOP means were compared at each interval, with left and right eyes compared separately.

Cc1ccc2c(NC[C@](O)(CC(C)(C)c3cc(F)cc4c3OCC4)C(F)(F)F)cccc2n1 [BOL-303242-X, mapracorat]
Intraocular Pressure, MEAN (treated right eyes, Day 3, 1 mg/g (Group D)): 24.7 mmHg
Intraocular Pressure, MEAN (treated right eyes, Day 3, 5 mg/g (Group C)): 23.6 mmHg
Intraocular Pressure, MEAN (treated right eyes, Day 3, 10 mg/g (Group B)): 23.1 mmHg
Intraocular Pressure, MEAN (treated right eyes, Day 5, 1 mg/g (Group D)): 25.5 mmHg
Intraocular Pressure, MEAN (treated right eyes, Day 5, 5 mg/g (Group C)): 24.8 mmHg
Intraocular Pressure, MEAN (treated right eyes, Day 5, 10 mg/g (Group B)): 25.7 mmHg
Intraocular Pressure, MEAN (treated right eyes, Day 10, 1 mg/g (Group D)): 25.3 mmHg
Intraocular Pressure, MEAN (treated right eyes, Day 10, 5 mg/g (Group C)): 25.6 mmHg
Intraocular Pressure, MEAN (treated right eyes, Day 10, 10 mg/g (Group B)): 24.3 mmHg
Intraocular Pressure, MEAN (treated right eyes, Day 12, 1 mg/g (Group D)): 24.0 mmHg
Intraocular Pressure, MEAN (treated right eyes, Day 12, 5 mg/g (Group C)): 23.4 mmHg
Intraocular Pressure, MEAN (treated right eyes, Day 12, 10 mg/g (Group B)): 23.8 mmHg
Intraocular Pressure, MEAN (treated right eyes, Day 16, 1 mg/g (Group D)): 22.0 mmHg
Intraocular Pressure, MEAN (treated right eyes, Day 16, 5 mg/g (Group C)): 21.4 mmHg
Intraocular Pressure, MEAN (treated right eyes, Day 16, 10 mg/g (Group B)): 21.6 mmHg
Intraocular Pressure, MEAN (treated right eyes, Day 18, 1 mg/g (Group D)): 23.1 mmHg
Intraocular Pressure, MEAN (treated right eyes, Day 18, 5 mg/g (Group C)): 21.6 mmHg
Intraocular Pressure, MEAN (treated right eyes, Day 18, 10 mg/g (Group B)): 22.5 mmHg
Intraocular Pressure, MEAN (treated right eyes, Day 22, 1 mg/g (Group D)): 22.5 mmHg
Intraocular Pressure, MEAN (treated right eyes, Day 22, 5 mg/g (Group C)): 22.8 mmHg
Intraocular Pressure, MEAN (treated right eyes, Day 22, 10 mg/g (Group B)): 23.1 mmHg
Intraocular Pressure, MEAN (treated right eyes, Day 24, 1 mg/g (Group D)): 23.6 mmHg
Intraocular Pressure, MEAN (treated right eyes, Day 24, 5 mg/g (Group C)): 23.4 mmHg
Intraocular Pressure, MEAN (treated right eyes, Day 24, 10 mg/g (Group B)): 22.8 mmHg
Intraocular Pressure, MEAN (treated right eyes, Day 26, 1 mg/g (Group D)): 22.6 mmHg
Intraocular Pressure, MEAN (treated right eyes, Day 26, 5 mg/g (Group C)): 22.2 mmHg
Intraocular Pressure, MEAN (treated right eyes, Day 26, 10 mg/g (Group B)): 20.9 mmHg
Intraocular Pressure, MEAN (treated right eyes, Day 30, 1 mg/g (Group D)): 21.8 mmHg
Intraocular Pressure, MEAN (treated right eyes, Day 30, 5 mg/g (Group C)): 22.4 mmHg
Intraocular Pressure, MEAN (treated right eyes, Day 30, 10 mg/g (Group B)): 22.4 mmHg
Intraocular Pressure, MEAN (treated right eyes, Day 32, 1 mg/g (Group D)): 22.9 mmHg
Intraocular Pressure, MEAN (treated right eyes, Day 32, 5 mg/g (Group C)): 22.7 mmHg
Intraocular Pressure, MEAN (treated right eyes, Day 32, 10 mg/g (Group B)): 23.3 mmHg
Intraocular Pressure, MEAN (treated right eyes, Pre-Study, 1 mg/g (Group D)): 24.2 mmHg
Intraocular Pressure, MEAN (treated right eyes, Pre-Study, 5 mg/g (Group C)): 24.5 mmHg
Intraocular Pressure, MEAN (treated right eyes, Pre-Study, 10 mg/g (Group B)): 24.0 mmHg
Intraocular Pressure, MEAN (untreated left eyes, Day 30, 1 mg/g (Group D)): 21.3 mmHg
Intraocular Pressure, MEAN (untreated left eyes, Day 30, 5 mg/g (Group C)): 20.9 mmHg
Intraocular Pressure, MEAN (untreated left eyes, Day 32, 1 mg/g (Group D)): 21.9 mmHg
Intraocular Pressure, MEAN (untreated left eyes, Day 32, 5 mg/g (Group C)): 21.5 mmHg
Intraocular Pressure, MEAN (untreated left eyes, Day 32, 10 mg/g (Group B)): 22.6 mmHg
Intraocular Pressure, MEAN (untreated left eyes, Pre-Study, 1 mg/g (Group D)): 24.2 mmHg
Intraocular Pressure, MEAN (untreated left eyes, Pre-Study, 5 mg/g (Group C)): 24.4 mmHg
Intraocular Pressure, MEAN (untreated left eyes, Pre-Study, 10 mg/g (Group B)): 23.9 mmHg

From patent US20120316199A1, “COMPOSITIONS AND METHODS FOR TREATING, CONTROLLING, REDUCING, OR AMELIORATING INFLAMMATORY PAIN” (priority 2011, published 2012)
